Assay results as given in the supplement of paper PMC11006884.
This list holds what a sample rich in targets with a hit left over. This is a noisy data set. The entries are a selection whose mix differs from that of the whole data set.

Sequences of proteins named here, by UniProt entry; tags and fusion partners are left off. A change or cut given only in a name is not applied to a line headed by its entry.
UniProt A6NHR9: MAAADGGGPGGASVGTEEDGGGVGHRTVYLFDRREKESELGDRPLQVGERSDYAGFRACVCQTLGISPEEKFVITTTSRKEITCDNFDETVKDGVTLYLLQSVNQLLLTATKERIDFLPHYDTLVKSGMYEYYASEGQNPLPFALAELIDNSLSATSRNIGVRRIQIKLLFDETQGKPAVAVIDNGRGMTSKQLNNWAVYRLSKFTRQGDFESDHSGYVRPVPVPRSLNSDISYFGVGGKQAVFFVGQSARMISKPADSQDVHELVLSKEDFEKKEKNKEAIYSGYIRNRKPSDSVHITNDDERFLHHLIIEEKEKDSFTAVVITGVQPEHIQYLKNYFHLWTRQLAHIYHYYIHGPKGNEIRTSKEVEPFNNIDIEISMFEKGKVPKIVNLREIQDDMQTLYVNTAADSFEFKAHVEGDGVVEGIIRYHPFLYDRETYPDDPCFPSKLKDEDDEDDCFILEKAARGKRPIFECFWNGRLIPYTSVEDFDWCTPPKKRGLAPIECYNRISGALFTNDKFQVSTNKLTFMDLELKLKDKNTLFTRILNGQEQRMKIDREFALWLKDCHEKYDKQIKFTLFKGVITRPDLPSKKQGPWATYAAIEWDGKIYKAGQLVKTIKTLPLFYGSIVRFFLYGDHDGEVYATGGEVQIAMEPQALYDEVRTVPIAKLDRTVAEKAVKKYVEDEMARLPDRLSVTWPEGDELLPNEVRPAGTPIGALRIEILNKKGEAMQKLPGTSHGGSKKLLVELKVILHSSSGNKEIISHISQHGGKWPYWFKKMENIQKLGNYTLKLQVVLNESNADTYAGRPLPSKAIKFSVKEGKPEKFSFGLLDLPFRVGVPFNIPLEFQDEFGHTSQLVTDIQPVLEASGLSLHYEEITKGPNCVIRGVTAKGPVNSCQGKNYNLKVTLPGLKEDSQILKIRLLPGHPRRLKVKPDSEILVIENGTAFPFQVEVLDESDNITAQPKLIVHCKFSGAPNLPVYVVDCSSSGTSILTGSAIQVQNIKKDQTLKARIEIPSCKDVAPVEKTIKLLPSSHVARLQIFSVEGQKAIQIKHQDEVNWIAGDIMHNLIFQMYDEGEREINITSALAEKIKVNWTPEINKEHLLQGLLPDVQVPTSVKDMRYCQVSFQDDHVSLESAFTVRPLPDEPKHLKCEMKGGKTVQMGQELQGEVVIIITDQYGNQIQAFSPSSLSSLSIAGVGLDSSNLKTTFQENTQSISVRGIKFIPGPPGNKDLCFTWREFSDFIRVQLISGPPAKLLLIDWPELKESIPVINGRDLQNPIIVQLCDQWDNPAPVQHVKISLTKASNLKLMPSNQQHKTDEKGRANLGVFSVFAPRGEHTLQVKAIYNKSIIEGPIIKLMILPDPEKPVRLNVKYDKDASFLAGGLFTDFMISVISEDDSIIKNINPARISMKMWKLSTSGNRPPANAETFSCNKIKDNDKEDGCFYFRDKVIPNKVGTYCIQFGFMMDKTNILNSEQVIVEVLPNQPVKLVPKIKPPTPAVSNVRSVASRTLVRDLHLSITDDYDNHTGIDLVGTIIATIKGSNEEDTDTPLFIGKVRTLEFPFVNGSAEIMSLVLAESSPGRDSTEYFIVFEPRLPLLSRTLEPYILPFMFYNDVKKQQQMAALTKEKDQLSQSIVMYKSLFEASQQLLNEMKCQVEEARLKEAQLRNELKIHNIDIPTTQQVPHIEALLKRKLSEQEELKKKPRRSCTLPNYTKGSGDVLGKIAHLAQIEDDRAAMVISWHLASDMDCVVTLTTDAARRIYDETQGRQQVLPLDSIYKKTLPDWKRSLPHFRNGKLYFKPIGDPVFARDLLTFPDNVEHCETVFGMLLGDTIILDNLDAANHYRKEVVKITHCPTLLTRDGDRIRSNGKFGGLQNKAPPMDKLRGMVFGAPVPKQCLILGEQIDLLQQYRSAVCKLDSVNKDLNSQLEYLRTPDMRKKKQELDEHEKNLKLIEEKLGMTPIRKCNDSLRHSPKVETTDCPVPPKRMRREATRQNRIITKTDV
UniProt A6NDG6: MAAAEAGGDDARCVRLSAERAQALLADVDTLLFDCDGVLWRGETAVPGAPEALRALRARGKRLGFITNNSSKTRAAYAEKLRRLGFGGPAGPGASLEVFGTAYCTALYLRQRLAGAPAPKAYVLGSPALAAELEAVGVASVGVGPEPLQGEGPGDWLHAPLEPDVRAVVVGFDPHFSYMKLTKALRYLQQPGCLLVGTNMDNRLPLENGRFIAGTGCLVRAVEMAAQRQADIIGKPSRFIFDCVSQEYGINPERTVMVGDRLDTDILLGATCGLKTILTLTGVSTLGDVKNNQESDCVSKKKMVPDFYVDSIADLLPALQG
UniProt A5PLL7: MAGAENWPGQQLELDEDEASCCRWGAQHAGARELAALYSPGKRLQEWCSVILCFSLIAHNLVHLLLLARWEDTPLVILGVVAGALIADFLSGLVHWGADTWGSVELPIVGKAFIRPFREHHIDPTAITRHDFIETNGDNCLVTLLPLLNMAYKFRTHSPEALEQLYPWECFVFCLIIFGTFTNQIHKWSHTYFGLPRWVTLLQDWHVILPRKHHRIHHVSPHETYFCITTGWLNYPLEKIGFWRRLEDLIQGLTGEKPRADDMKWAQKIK
UniProt A1L0T0: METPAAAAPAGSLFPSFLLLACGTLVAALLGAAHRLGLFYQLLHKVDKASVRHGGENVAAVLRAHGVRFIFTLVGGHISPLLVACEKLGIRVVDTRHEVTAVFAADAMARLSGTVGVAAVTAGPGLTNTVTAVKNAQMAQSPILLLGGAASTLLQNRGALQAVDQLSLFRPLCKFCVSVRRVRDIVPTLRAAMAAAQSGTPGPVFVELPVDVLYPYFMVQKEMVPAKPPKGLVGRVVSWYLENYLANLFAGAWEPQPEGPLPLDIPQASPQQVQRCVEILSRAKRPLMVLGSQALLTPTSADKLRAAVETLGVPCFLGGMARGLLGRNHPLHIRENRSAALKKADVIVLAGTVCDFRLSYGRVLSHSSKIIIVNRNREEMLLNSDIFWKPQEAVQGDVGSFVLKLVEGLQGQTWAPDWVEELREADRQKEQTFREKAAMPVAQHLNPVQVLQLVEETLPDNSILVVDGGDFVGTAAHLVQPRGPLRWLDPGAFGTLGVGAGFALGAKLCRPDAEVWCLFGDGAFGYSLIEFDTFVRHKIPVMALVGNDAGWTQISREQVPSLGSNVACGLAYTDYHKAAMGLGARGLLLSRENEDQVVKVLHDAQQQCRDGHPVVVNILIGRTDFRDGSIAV
UniProt A6NHG4: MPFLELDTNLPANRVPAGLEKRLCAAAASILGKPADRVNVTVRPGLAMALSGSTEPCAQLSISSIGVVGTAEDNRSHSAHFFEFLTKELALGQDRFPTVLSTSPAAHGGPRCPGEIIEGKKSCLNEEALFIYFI
UniProt A0JNW5: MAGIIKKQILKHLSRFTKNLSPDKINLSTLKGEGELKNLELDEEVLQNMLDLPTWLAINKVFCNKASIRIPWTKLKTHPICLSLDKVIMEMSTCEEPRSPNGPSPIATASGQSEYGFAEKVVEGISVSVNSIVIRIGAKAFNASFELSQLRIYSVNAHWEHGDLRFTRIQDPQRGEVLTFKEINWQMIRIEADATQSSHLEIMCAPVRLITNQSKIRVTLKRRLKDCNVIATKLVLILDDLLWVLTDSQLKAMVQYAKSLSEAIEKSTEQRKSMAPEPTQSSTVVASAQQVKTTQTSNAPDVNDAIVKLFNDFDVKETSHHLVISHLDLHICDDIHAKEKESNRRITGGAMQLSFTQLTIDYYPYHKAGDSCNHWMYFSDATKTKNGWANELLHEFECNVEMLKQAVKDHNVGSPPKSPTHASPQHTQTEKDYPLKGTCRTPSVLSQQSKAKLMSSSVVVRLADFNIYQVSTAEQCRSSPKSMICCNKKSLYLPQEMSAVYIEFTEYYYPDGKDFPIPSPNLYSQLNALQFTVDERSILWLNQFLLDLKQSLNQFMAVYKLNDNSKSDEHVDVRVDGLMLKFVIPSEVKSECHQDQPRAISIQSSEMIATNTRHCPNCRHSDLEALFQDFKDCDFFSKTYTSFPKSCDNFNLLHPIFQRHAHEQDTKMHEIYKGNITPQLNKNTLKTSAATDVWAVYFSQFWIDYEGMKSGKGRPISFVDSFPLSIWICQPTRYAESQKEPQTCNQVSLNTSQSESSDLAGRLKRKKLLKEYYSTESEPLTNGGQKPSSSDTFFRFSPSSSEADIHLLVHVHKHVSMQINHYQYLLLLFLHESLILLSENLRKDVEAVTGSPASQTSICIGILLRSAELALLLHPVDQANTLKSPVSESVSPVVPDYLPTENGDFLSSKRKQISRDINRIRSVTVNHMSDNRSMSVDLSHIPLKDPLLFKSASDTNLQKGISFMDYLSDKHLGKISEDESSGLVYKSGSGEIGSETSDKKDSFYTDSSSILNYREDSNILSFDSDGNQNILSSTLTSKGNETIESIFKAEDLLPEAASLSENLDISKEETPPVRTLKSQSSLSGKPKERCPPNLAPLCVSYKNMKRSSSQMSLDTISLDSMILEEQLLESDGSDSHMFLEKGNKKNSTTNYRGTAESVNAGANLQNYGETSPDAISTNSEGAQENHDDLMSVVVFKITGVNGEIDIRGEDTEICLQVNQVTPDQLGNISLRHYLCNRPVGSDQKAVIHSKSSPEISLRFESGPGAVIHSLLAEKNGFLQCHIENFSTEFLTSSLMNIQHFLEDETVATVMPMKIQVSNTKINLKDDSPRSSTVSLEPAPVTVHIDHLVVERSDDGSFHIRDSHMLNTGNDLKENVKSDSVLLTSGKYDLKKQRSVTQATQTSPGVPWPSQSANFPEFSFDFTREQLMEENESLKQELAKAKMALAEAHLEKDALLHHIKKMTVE
UniProt A4D1E9: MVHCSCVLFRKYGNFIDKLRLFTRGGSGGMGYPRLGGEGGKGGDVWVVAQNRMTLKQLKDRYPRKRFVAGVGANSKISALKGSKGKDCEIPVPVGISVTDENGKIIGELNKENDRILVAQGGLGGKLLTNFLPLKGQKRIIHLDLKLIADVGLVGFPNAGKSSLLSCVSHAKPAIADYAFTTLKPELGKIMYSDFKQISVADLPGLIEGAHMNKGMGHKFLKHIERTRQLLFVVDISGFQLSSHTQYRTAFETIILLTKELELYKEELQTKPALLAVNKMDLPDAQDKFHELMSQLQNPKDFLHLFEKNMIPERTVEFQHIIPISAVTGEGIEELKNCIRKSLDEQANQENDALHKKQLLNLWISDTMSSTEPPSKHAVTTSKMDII
UniProt A0MZ66, whole entry, looked up: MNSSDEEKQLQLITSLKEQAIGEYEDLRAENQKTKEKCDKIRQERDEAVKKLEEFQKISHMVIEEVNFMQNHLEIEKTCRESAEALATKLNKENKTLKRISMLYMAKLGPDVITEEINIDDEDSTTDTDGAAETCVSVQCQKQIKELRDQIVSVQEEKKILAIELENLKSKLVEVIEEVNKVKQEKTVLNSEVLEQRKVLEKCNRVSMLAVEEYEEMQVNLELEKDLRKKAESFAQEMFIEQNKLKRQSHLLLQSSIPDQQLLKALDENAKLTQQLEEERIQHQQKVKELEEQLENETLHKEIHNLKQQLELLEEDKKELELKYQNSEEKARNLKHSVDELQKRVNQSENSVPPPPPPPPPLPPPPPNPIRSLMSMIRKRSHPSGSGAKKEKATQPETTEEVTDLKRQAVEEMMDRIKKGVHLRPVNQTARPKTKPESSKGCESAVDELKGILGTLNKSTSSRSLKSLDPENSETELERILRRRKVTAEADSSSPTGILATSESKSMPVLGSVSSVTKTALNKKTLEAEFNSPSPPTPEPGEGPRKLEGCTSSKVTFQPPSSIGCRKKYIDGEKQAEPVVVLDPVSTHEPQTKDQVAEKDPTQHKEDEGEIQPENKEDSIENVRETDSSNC

Each target was assayed with COC(=O)/C=C/c1ccccc1 [methyl cinnamate] (assay: log2 ratio of iodoacetamide-alkyne labeling of the cysteine site, DMSO over compound (competition); higher = stronger covalent engagement of the cysteine by the compound, active = 1 or more). Settings: 500 µM; treatment time 1 h; system: HEK293T cell lysate.
Summary of the method: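 The log2 competition ratio per cysteine is defined as mean reporter intensity in control channels over mean reporter intensity in compound channels. Lysate from HEK293T cells (2 mg/mL) received electrophile (500 µM) or vehicle for 1 h at ambient temperature, followed by iodoacetamide alkyne for 1 h. Samples were clicked to sCIP-TMT reagents, pooled, trypsin-digested overnight at 37 °C, streptavidin-enriched, acid-eluted and run on Orbitrap Eclipse LC-MS/MS with FAIMS, with quantification in FragPipe. Three replicates with duplicate channels were used, and any cysteine quantified in only one replicate was excluded.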

log2 ratio of iodoacetamide-alkyne labeling, inactive:
SMCHD1 C59 (UniProt A6NHR9) 0.0634
A0AVT1_C625 0.21
SMCHD1 C84 (UniProt A6NHR9) -0.283
PGP C297 (UniProt A6NDG6) 0.259
SMCHD1 C1823 (UniProt A6NHR9) -0.188
A0AV96_C349 -0.126
SMCHD1 C1124 (UniProt A6NHR9) -0.0665
CNOT1 C624 (UniProt A5YKK6) 0.21
TMEM189 C21 (UniProt A5PLL7) 0.285
SMCHD1 C1656 (UniProt A6NHR9) 0.302
PGP C243 (UniProt A6NDG6) 0.377
SMCHD1 C1433 (UniProt A6NHR9) 0.0524
SH3PXD2B C783 (UniProt A1X283) 0.234
TMEM189 C22 (UniProt A5PLL7) 0.285
ILVBL C315 (UniProt A1L0T0) -0.0232
A0AVT1_C347 0.414
DDTL C24 (UniProt A6NHG4) 0.326
PGP C193 (UniProt A6NDG6) -0.0772
UHRF1BP1L C633 (UniProt A0JNW5) -0.64
UniProt A2RUB1_C342 0.162
GTPBP10 C338 (UniProt A4D1E9) 0.0147
UniProt A0MZ66_C442 0.229

Already shown: entries from further up.
log2 ratio of iodoacetamide-alkyne labeling, inactive:
CNOT1 C624 (UniProt A5YKK6) 0.21
TMEM189 C21 (UniProt A5PLL7) 0.285
SMCHD1 C1656 (UniProt A6NHR9) 0.302
PGP C243 (UniProt A6NDG6) 0.377
SMCHD1 C1433 (UniProt A6NHR9) 0.0524
